In publication PMC9426511 one finds binding data, which are given here for 17 molecules.

Results are given in words; binding and its absence hold for the method and conditions named.

This assay addresses EscE (Edwardsiella piscicida). The assay can be described thus: two-hybrid; bait in pGBKT7 (GAL4 DNA-binding domain), prey in pGADT7 (GAL4 activation domain), yeast AH109; growth as blue colonies on SD/-Trp -Leu -His -Ade.

B1: EsaD (protein, UniProt A0AAU8P989 1-396)
chain: METCFKLTLLNGPLRGQALRLPAGEFTLGEREESDLHLALESGGSASLSVSAQGVSLATPTACWVGGRPWHGDRLPLNQGIDLAGIHFALTDGASDTPLPQIAKRRTGRRTTLLYLLLGALLPTLGIIGLLWPSAAPTPPSPRAWLPQALQNEPGLQAIWQSSGDLLLRGHCQESGRLAALRQRLQASGIHLQQEAVCNDTLRQALRALLNSYGYQNMIITLQDNGDAAIDGDFQGNSAPLAQALDRLPGLGRWQFTDSGAQTLSRLINALRAEGLLEGISARRTEHAWLLSGHLAPPQQARLNHLLQRLGQQGEGDTLPLRFIGMAGAFDAEDLLPAPIAGVGGADNALYLQLSNGMRLLPGAPLSQGMRIVQITASGVSLAGRLRLIFIPLHSR
B1: the binding result is “no binding”.

B2: EsaU (protein, UniProt A0AAU8P1U8 1-352)
chain: MSEKTEQPTAKRLRDAREEGQVAKSQDISATVQLAVILLWMVTEGPTLYAAIGGFIDATLATLNLPLPDAIALLTGKAAALVVRFVFSLAALLAVTLILTGLVETGFLFAPKAIMPSAERINPLNNAKQMVSLLKLFELGKMVLKIVILGLTFTYFIRGYAASFAQLVRADAEAGLWVTSKMTLWMWGILLLLTALFAVVDYSMQYRHLRKQLMMSHEDIKQEFKNAEGSPEIKQRRRELHREIQSGSLADSVSSASVVVRNPTHIAVCLRYCEGETPLPQVVEYGRGARARHIVALAEARRIPVVENIPLARALIATTRPGDYVPEALFVAVAQLLRLLRDETEEEEEEDA
With B2, the binding result is given as “no binding”.

B3: EsaJ (protein, UniProt A0AAU8P3W1 1-243)
chain: MKIIPWILIFGLLPLLSGCKSELYSKLDEKEANQMMALLIYNNIPADKRVEKEGVTLLVERERFVDAVEVLRQNGLPRRKTVTMQELFPSGQLVTSPEQEEAKLNYLKSQQIEKMLGSMDGVINAEVSVAEPRVIVGEAPPQASAAVFIKYSPEINLPAREAEIRALIHNGIPGLAPDRISVTLQRAEYRYQPPTIAAAEDHKITLYGHPLPREALVAAACTLLFGLLISLFLWLRRPGRSTS
Consider B3, for which the binding result is on record as “no binding”.

B4: EseC (protein, UniProt A0AAU8P6S4 1-478)
chain: MNNITETRYTTPPLGGSGQNDSVQSQHDHPQIGAGALDPLRPPPQRQQDHDPKREFHRPPAPRQPVTLRLAEGALNRILDIFGPRVDGKPLTVSDIERTPMEAMTLAASLLGVKALGDNANLKALAMEIRTHGAENLRLRQNEDLRKQVEKSIEDQAKAQKAGIFSAIVDWIVSIAEVVSGIGKILIGDFAGGAMDVAAGCAGLVKAACETLALIDKDNAEKYQSIADVAGKVQLAFEIAGMAVDLVSVGRGVMASKSIAKATETVMEGAAGEALHTAVTQGSETAIKTAASEIGKQVAEQVADQVTRTLAEQSGRFLGQGHLLEAFSKQAIEQMVTRAVEAAAKKALQSGVEMSAKELSKQVVKEVQREVIKAIVGACIDSVANNAKSTTRSTLQGVNGVYQGVITKERADLQKVIQQLINETDFMQFMLEEFEKIKKRAKEDIGSLMDGAGKALSAAADAQQKSGAMLSNIAANIA
In the case of B4, the binding entry is “no binding”.

B5: EsaB (protein, UniProt A0AAU8P1T4 1-159)
chain: MPARRSHINSGMHPIRSGAPPLYPNDMNRKLNPRQALQQLAMYLNQADWSQGQQSLTGTLQDRRLKGRYFASGMCVAITIAWPLAQASQACLLLAASPETLDDALYVEQEQFWLLRRYPPALTEAELDLLLQQQLAMAGLLAPAVRDTHPESPFIGRYA
On to B5, for which the binding result was “no binding”.

B6: EsaN (protein, UniProt A0AAU8PEE6 1-438)
chain: MRLPDAQKILDRLDCPTLPSVTDVRLEGRLLTVGATLLRAHLPGVGLGEQCTLPDGSPAEVVAIEGDQALLSPYHAPLGLANGMLVTPSGAQARIGVGEALLGRVIDALGQPMDGCAPPQAAQWRSLESPAPDPMQRAPIDTLLPMGVRAIDAALSVGVGQRLGIFSPAGCGKSTLLGMLAAHSQVDVVVLALIGERGREVREFIEQIMSPELRARSVVILATSDRPALERIKAADTATVIAEYFRDRGHHVLLLVDSLTRYARAIREIALAAGEPMVSGGYPPSLYARLPRLLERAGPAACGSITAFYTVLVEQKSDPLAEEVRSLLDGHIVLSRRLAEASHYPAIDILASISRVMSQVVTPQHRQAANRLRHLLATWQEIALLVRVGEYRAGQDADADDAMARREAIASLLCQQTDERCPLSATLSALYSAVGQPC
Consider B6, for which the binding entry is “no binding”.

B7: EsaL (protein, UniProt A0AAU8P1W1 1-342)
chain: MLNIHSASLAPTDRQTIVPHAAPGPENGASVIAQAMVELSESQSDALEETQEDLSFALGGRLRELRNGKEHDSSSRDRVLMHKLVAEVAMIAEEDLSDLNDDSAWQHAPQLLSALQAQYPAPGAAALHLAAWLAHRQPGARLRSRMEAALASLMADDQTAIALFATLEFGAVTPGLRQELLQLYHRALAPRRQISQWLNLLGERQQRHKKIRAMLHLLAYALSASGQPIVGSHLAAVIDDLRQLLRLLGLEDYCDRAAAALGMPAISGEGLMLLVVQLIEQIWLNADTLAEMLPPQAELDRYRLLQSLGKLIQLLPDACFNDADHRLQLDDAIHNLSDSIVS
In the case of B7, the binding result is “no binding”.

B8: EsrB (protein, UniProt A0AAU8P338 1-214)
chain: MTISILPLNILIVEDHALLADGIRNLLDSQPRYRVVGAVSNGLAVYEACQRLSPDLVLLDLGLPGMDGVDVIRQLRRRWSDMRIVVVTASSEARRGSEALAAGALAYVLKQSPQQTLLAAMQHASLGKTFVDPALRLDSLVASSDMAQEPPLTLRERQILKLVAEGKRNRDIAELLSISLKTVETHRLNLMRKLDAHNAAELSNWARRLGVLEF
Take B8: the binding result is recorded as “no binding”.

B9: EsaI (protein, UniProt A0AAU8P5G8 1-83)
chain: MNVDALNAIGQALTGGTPEVNDPVPLPAQQRFAALMNAPQAGDSPDALLAIQGTLNELAVGVDLTAKVAGSVAQSINKLVNLS
Take B9: the binding entry was “no binding”.

B10: EsaT (protein, UniProt A0AAU8P212 1-260)
chain: MMAELNHWWPLLGIAMMRPLGIMLIMPLFNSAMLGGALIRNALALMAALPALPQLAALVLPSPLQAPLHYGGLLLGELVLGLLLGFSAALPLWALNMAGFIIDTMRGASIAVLFNPLLGEQSSPMGVLFSQLVGVLFIVGGGFHALLAALFSSYGDLPPGQYWLWGRGFIPLLMHLWHLLYTLALSFSMPAMVMMVLVDLALGFINRSVQQLNVFTLSMPIKSAMVLLMLIISLPFALDGVQALFTRFDGGLLRQLAEAL
B10: the binding result is given as “no binding”.

B11: EseD (protein, UniProt A0AAU8P1W8 1-193)
chain: MTTIDSGSHGVNGITPPDGHRYVSQDRGGDAIGQLNELMVQLGELFGKLRDVLRQYQQTQQSNAFKMQKTAYDTRVDAIDKDFQAKQAQAIAQILGGIAQTVGGAFGEEAHTISNGVNSMTQGIVGVGYVNDMSRQSQEEQALSEYQHGLAEQQLKRADETLEKALKISGDLREILTTLNQAHERIASSVRMS
On to B11, for which the binding entry is listed as “no binding”.

B12: EsaC (protein, UniProt A0AAU8PNE5 1-494)
chain: MRILVLLLLLCGGFSAPSLAQPIPWRGAPFFVSSQSATLASVLRDLGANSGVPVVVSPRITESYAGELRDTPRGTILAELSRLYQLLPYYDGNTLYIYKAQEMEQATLAPSYLAGSVLKRLLQRSGLLDGYACQVRQVASANALQVNGVPACLSQVTTLAKQLDEQDLNLEQNRETVAVFPLKYANASDTSYAYRNQSVVVPGLVSVLREMAQGHAMPLPDSKSGTPPSNSSGLPTFSADLRQNAVLIRDRKQNMALYRQLIQQLDKRPTLIEISVTIIDVDAGDINELGIDWSASARIGGGQVSFNNSGGLNADSFSSLIANSGSFMVRLSALEQQSKAKIVSRPSVVTLDNVQAVLDRSITFYTKLRSEKNPKLEAITAGALMRVTPRLIRERGGNKILLILNIEDGRQGAPLSQAESLPQVQNAEIATQATLNLGQALLLGGFVQNENTQGVRKIPLLGDIPLIGGLFRSTDSKVHSVVRLFLIKAEPRQM
B12: the binding entry is “no binding”.

B13: EseE (protein, UniProt A0AAU8P1U3 1-127)
chain: MDDVSRFMIAEGLRPAPAHFLESEFLMGQRIETPRFYLTYRQEGERLILCDFTARNDDGQAVIALMGLLRRLIGALPLLRYIDAMILPAPHDRALDRMRRRLTDVMLAEGAQPLRLDDALWLRYCCR
With B13, the binding entry is “no binding”.

B14: EsrC (protein, UniProt A0AAU8PC08 1-230)
chain: MPNLHLLLVTGPDNIALLPEPGALLIADSRPPGIASTRHTRLFSYPCNLLHGICRDLQHLMYSGPAPVAPPQPLPIAMAPGLLKTLLRLADADDETMLRLVLAYSLTLECQRTSTLLRSLLTADADLFDTLYRHRLEPWPVARYADLFGLSQRKFNQLFNDKFGMAPKRWLLRQRLGHARQLLETTSKKVIDVALESGFCNAAHFSDCFRRHFSQSPSEVRRASLHHRAG
Regarding B14, the binding result was “no binding”.

B15: EsaR (protein, UniProt A0AAU8P1T9 1-215)
chain: MSLTEQPAELIALLVTLSLLPLLIVMGTSFLKLSVVFALLRNALGIQQIPPNIALYGLALILTLFIMTPVGTAVQARLADAPAEAQTTLLARLSDNTLDPYRQFLRQHTSATQLHFFRQVATKSWPASVREQISDDSLLLLMPAFAVSQLVEAFQIGLLLFLPFIAIDLIVSNILLAMGMMMVSPMTISMPFKLLVFILVGGWDKLLGQLLLSYR
For B15, the binding entry is listed as “no binding”.

B16: EsaS (protein, UniProt A0AAU8P1V4 1-89)
chain: MGKAQLVQLASELLWLVLILSLPVVLVASLVGVLVGLVQALTQIQDQTVSFAIKLVAASVTLALTYHWMGSALFSYAGRAMDLIAQMGG
As for B16, the binding result is listed as “no binding”.

B17: EseB (protein, UniProt A0AAU8P3X3 1-198)
chain: MTVNTDYHGGVNHVGANGYDNNLDRMAGQGDSIMSDGISVLYQFMTLFTDLAQGKYDQMKAKADRARNSQQVANQIDAIIAKFKKAGDKGDLPPEVLKYLRDHNINITVQDDGKNATSDIDQYLKSIGHPDGKGLDKGELDVIKGALETDSGRSSDFVTQAQLQIQKTMQSYNVCVSLINSMQTLLAEMNKSIAQNIR
Regarding B17, the binding entry is given as “no binding”.
